Values from PubChem BioAssay AID1671195 (Yale University, 2021).

Screen: 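Knockdowns that increase or decrease uptake of fluorescent LDL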 (primary screen)
System: human Huh7 hepatoma cells
Reagents: siRNA pool against human genes, 18 nM
Timing: about 2 to 2.5 days of knockdown, then 8 h LDL uptake
Treatment: DiI-labelled LDL at 30 µg/ml for 8 h, in lipoprotein-deficient serum medium
Detection: 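Fluorescent LDL signal imaged in cells, scaled to the plate median, robust z-score for each replicate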
Scale: robust z-score: higher = more LDL uptake after knockdown
Hit rule: 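Active when two or more replicates show a robust z-score above 2 or below -2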
This is an unselected part of about 22,000 deposited reagents. Of all reagents, about 1,510 (6.9%) got an active call. 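Active includes knockdowns raising or lowering LDL uptake; positive z-scores mean more uptake, negative mean less.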 Reagents against one gene are numbered here.

Gene,reagent,"robust z-score, replicate 1","robust z-score, replicate 2","robust z-score, replicate 3",activity call
PIGW (phosphatidylinositol glycan anchor biosynthesis class W),1,0.776,0.858,0.732,inactive
ZNF184 (zinc finger protein 184),1,1.02,-1.18,-0.308,inactive
CACNG6 (calcium voltage-gated channel auxiliary subunit gamma 6),1,-1.18,-1.47,-1.32,inactive
CALCRL (calcitonin receptor like receptor),1,2.66,1.08,2.45,active
WBP2P1 (WW domain binding protein 2 pseudogene 1),1,-0.284,-0.245,-0.775,inactive
AKT1 (AKT serine/threonine kinase 1),1,0.369,-0.446,-0.334,inactive
CHMP4B (charged multivesicular body protein 4B),1,2.2,1.86,2.71,active
ZNF460 (zinc finger protein 460),1,0.577,0.868,0.793,inactive
PABPN1 (poly(A) binding protein nuclear 1),1,0.11,-0.606,0.0649,inactive
"TEX56P (testis expressed 56, pseudogene)",1,1.27,1.74,0.816,inactive
LOC400842 (retired record),1,-0.121,-0.48,-0.591,inactive
SACM1L (SAC1 like phosphatidylinositide phosphatase),1,-1.57,-1.19,-1.29,inactive
CREB5 (cAMP responsive element binding protein 5),1,3.55,4.02,3.3,active
CREB5 (cAMP responsive element binding protein 5),2,0.573,2.08,1.59,inactive
TNRC6A (trinucleotide repeat containing adaptor 6A),1,0.834,-0.0783,0.302,inactive
DRD2 (dopamine receptor D2),1,-0.847,0.582,-0.541,inactive
GPR87 (G protein-coupled receptor 87),1,0.108,-1.06,-0.62,inactive
MPPED1 (metallophosphoesterase domain containing 1),1,-1.82,-1.67,-2.33,inactive
NUCB1 (nucleobindin 1),1,-0.339,0.18,-1.25,inactive
NFYC (nuclear transcription factor Y subunit gamma),1,-0.853,-1.58,-0.602,inactive
ESYT2 (extended synaptotagmin 2),1,2.66,1.57,1.97,active
BCL11A (BCL11 transcription factor A),1,0.0318,0.0933,1.25,inactive
NXNL1 (nucleoredoxin like 1),1,-0.299,-0.171,-0.257,inactive
SUZ12P1 (SUZ12 pseudogene 1),1,0.705,0.379,0.483,inactive
"RAB9B (RAB9B, member RAS oncogene family)",1,1.15,2.15,1.31,inactive
LOC441464 (retired record),1,0.0902,-0.0958,0.0364,inactive
SAV1 (salvador family WW domain containing protein 1),1,-0.238,1.85,0.983,inactive
AHI1-DT (AHI1 divergent transcript),1,-0.56,-1.09,-1.13,inactive

3 neighbouring entries already listed, for reference:
Gene,reagent,"robust z-score, replicate 1","robust z-score, replicate 2","robust z-score, replicate 3",activity call
"RAB9B (RAB9B, member RAS oncogene family)",1,1.15,2.15,1.31,inactive
LOC441464 (retired record),1,0.0902,-0.0958,0.0364,inactive
SAV1 (salvador family WW domain containing protein 1),1,-0.238,1.85,0.983,inactive
